Primary screen of a compound library

By UniProt entry, the sequences of proteins in these tests, tags left out.
UniProt P9WPC5, whole entry: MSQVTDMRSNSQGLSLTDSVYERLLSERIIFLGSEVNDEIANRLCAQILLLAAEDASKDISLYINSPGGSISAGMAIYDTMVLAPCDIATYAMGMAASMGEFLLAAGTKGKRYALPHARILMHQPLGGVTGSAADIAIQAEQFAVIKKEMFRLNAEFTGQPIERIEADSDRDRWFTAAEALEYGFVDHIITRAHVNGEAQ
UniProt P9WPC3, whole entry partner: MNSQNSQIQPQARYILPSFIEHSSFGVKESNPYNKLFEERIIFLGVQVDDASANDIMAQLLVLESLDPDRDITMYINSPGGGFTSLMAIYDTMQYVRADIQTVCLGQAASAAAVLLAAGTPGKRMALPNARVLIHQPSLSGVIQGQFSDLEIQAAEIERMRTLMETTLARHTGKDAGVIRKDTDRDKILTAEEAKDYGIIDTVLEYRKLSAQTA

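Protease assay of ClpP1P2, read by the AMC dye that it sets free. Target: ClpP1P2, Mycobacterium tuberculosis (UniProt P9WPC5 and UniProt P9WPC3). Compounds at 50 µM. Direction is inferred from only a few compounds that gave an IC50; most scored high, so higher reads as stronger inhibition. Most other retested compounds had strongly negative values. About 69,000 compounds were tested under these conditions; 0.015% (about 10) showed 50% or more at least once.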

Values are the deposited “Percent Effect”, in %. The controls that fix the scale are not given in the record; negative values are as filed. Compounds were drawn at random from those tested, without regard to their results.

- O=C(c1cccc(F)c1)N1CCOC(c2nc(-c3ncccn3)no2)C1 (stereo unspecified) | -0.4468%
- Cc1ccc(CN(C)C(=O)CN2CC(n3cccn3)C2)o1 | -5.082%
- Cc1ccc(-n2cnnn2)cc1NCC(=O)Nc1cc(F)ccc1F | -10.27%
- COc1cccc2c1OCC(NC(=O)NC1CCN(C3CC3)CC1)C2 (stereo unspecified) | 0.6697%
- CC(C)Cc1cc(CC2(NCc3ccccc3Cl)COC2)no1 | 1.49%
- COC(=O)C(C)(C)S(=O)(=O)c1ccc(Br)cc1 | 0.9877%
- Cc1nc(CNc2cccc(Cl)c2Cl)cs1 | 4.751%
- CCCc1nnc(NC(=O)N2CCCC2c2ccncc2)s1 (stereo unspecified) | 8.006%
- CN(Cc1ncnn1C1Cc2ccccc2C1)C1CCS(=O)(=O)C1 (stereo unspecified) | -11.1%
- CCS(=O)(=O)N1CCOCC2(CCN(c3ccccn3)C2)C1 (stereo unspecified) | -10.68%
- Cc1nc(NCCSc2ccccn2)c2c(C)noc2n1 | 1.573%
- COc1ccccc1OC1CN(C(=O)CN(C)Cc2ccncc2)C1 | -9.46%
- O=C(c1cnco1)N1CCC(Cc2ccc3ncccc3c2)CC1 | -0.366%
- Cc1nn(-c2ccccc2)c2c1C(c1ccc(C(=O)O)cc1)CC(=O)N2 (stereo unspecified) | -5.455%
- Cc1cc(N2CCC(NC(=O)CCc3cnn(C)c3)CC2)nc(C)n1 | 13.59%
- Cc1cccc(C(=O)NCc2ccc(OCCN(C)C)cc2)c1C | 0.3304%
- CC(NC(=O)CCC1CCCCC1)c1nnc2n1CCC2 (stereo unspecified) | -2.918%
- Cc1ccccc1C(=O)N1C[C@@H]2OCCN(c3ncccn3)[C@@H]2C1 | -8.208%
- CNC(=O)[C@@]12CCO[C@@H]1CCN(S(=O)(=O)c1cc(C)cc(C)c1)C2 | 2.312%
- COc1ccc(-c2n[nH]cc2CN2CCSCC2)c(OC)c1 | 3.701%
- O=C(CCCNC(=O)Nc1ccc(F)cc1F)Nc1cn[nH]c1 | 1.288%
- CCCN(Cc1nccn1C)C(=O)C(CC)Nc1cccc(OC)c1 (stereo unspecified) | -4.267%
- Cc1noc(CN(C)C2CCCN(Cc3noc(C4CC4)n3)C2)n1 (stereo unspecified) | -7.698%
- COc1cccc(CCC(=O)N2CCCC(c3nncn3C)C2)c1 (stereo unspecified) | -9.63%
- Cc1cnn(CC2CCCN2CC(=O)N(C)Cc2cnn(C)c2)c1 (stereo unspecified) | -10.95%
- Cc1ccccc1CC(=O)N1CCCn2cncc2C1 | -2.124%
- CCCc1nc2c(c(C)c(C)n2Cc2ccncc2)c(N)c1CC | 21.93%
- CC1CS(=O)(=O)CCN1CCCc1ccc(Cl)cc1 (stereo unspecified) | -30.48%
- Cc1nc(N(C)C)nc2c1COCC21CCN(CC2CC2)C1 (stereo unspecified) | -2.771%
- CC(c1cccnc1)N1CCN(CCCC#N)CC1 (stereo unspecified) | -7.675%
- O=C(NCCN1CCCCCC1=O)c1n[nH]c(=O)c2ccccc12 | -2.473%
- CC(C)(C)N1CC(C(=O)N2CCN(CCn3cccc3)CC2)CC1=O (stereo unspecified) | -11.91%
- CC(=O)N1CCC(c2nccnc2-c2ccc(F)c(F)c2)CC1 | -5.781%
- Cc1csc(CN2CCC[C@]3(C[C@H](OCC4CC4)CO3)C2)n1 | -4.943%
- Fc1ccc(CN2CCCC2Cn2cncn2)c2ncccc12 (stereo unspecified) | -0.568%
- CCc1cnc2c(c1Nc1cccc(OC)c1)c(=O)n(C)c(=O)n2C | 9.752%
- O=C1CC(c2cccs2)c2snc(C(=O)O)c2N1 (stereo unspecified) | -7.576%
- Cc1cnn(CC2CCCN2Cc2coc(-c3ccccc3)n2)c1 (stereo unspecified) | -26.82%
- O=C(NCC1COC2(CCOCC2)O1)c1csc(-c2cccc(Cl)c2)n1 (stereo unspecified) | 2.155%
- CC(C)c1nnc2n1CCN(Cc1csc(-c3cnn(C)c3)n1)C2 | -3.057%

3 of the entries, repeated:

compound,percent effect
Cc1cnn(CC2CCCN2Cc2coc(-c3ccccc3)n2)c1 (stereo unspecified),-26.82
O=C(c1cccc(F)c1)N1CCOC(c2nc(-c3ncccn3)no2)C1 (stereo unspecified),-0.4468
COc1ccccc1OC1CN(C(=O)CN(C)Cc2ccncc2)C1,-9.46

From ChEMBL document CHEMBL3988442, “University of Dundee, Small-Polar-MMV Screening Library” (2021).